In data set [1] the target is FOS (UniProt P01100). The experiment in a line: EMSA. As to conditions: FOS only, 75 nM; 20 mM HEPES (pH not stated), 4 mM MgCl2, 20 mM KCl, 5 mM DTT, 1 mM EDTA, 100 ug/ml BSA, 4% glycerol, poly(dI-dC), 30 min room temperature; native gel 1X TBE; commercial protein; label: IRDye-700 as probe, unlabeled as competitor. (In general: In EMSA bound probe runs differently from free probe, usually more slowly.)

Protein sequences, listed by entry. Tags and fused reporters are not part of them. Lines headed by an entry give the natural chain unless they say otherwise; changes in a name come on top.
UniProt P01100, whole entry: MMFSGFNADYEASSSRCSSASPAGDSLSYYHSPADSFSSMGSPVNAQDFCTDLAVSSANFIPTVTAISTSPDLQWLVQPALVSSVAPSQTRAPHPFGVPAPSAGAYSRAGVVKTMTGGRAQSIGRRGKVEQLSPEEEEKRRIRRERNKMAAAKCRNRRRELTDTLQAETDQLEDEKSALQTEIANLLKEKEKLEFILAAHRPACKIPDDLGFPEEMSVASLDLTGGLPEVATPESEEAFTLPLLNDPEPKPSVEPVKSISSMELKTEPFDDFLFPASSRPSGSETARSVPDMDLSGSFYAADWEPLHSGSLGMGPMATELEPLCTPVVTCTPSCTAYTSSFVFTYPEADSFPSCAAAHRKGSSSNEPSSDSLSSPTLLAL
UniProt P05412, whole entry: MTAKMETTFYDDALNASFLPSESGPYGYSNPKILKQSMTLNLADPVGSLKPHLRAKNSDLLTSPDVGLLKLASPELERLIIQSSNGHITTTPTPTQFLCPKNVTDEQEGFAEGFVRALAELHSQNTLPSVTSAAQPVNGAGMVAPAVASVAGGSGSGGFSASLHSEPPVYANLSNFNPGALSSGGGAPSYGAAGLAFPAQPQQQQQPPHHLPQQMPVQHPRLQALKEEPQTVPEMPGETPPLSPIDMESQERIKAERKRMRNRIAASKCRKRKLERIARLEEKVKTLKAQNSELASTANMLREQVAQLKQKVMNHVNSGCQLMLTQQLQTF
UniProt O15525: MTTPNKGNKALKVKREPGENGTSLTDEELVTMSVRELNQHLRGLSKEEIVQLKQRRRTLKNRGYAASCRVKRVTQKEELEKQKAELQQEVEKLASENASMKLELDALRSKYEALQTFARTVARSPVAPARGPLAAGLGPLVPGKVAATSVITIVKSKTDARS

For data set [2], the target named is JUN (UniProt P05412). Briefly: EMSA. Conditions: JUN only, 75 nM; 20 mM HEPES (pH not stated), 4 mM MgCl2, 20 mM KCl, 5 mM DTT, 1 mM EDTA, 100 ug/ml BSA, 4% glycerol, poly(dI-dC), 30 min room temperature; native gel 1X TBE; commercial protein; label: IRDye-700 as probe, unlabeled as competitor.
The target in data set [3] is MAFG (UniProt O15525). The experiment in a line: EMSA. As to conditions: MAFG only, 37.5 nM; 20 mM HEPES (pH not stated), 4 mM MgCl2, 20 mM KCl, 5 mM DTT, 1 mM EDTA, 100 ug/ml BSA, 4% glycerol, poly(dI-dC), 30 min room temperature; native gel 1X TBE; commercial protein; label: IRDye-700 as probe, unlabeled as competitor.
The target in data set [4] is T1, NRF1 (Homo sapiens) (UniProt Q14494).
T1 sequence (looked up, limits assumed): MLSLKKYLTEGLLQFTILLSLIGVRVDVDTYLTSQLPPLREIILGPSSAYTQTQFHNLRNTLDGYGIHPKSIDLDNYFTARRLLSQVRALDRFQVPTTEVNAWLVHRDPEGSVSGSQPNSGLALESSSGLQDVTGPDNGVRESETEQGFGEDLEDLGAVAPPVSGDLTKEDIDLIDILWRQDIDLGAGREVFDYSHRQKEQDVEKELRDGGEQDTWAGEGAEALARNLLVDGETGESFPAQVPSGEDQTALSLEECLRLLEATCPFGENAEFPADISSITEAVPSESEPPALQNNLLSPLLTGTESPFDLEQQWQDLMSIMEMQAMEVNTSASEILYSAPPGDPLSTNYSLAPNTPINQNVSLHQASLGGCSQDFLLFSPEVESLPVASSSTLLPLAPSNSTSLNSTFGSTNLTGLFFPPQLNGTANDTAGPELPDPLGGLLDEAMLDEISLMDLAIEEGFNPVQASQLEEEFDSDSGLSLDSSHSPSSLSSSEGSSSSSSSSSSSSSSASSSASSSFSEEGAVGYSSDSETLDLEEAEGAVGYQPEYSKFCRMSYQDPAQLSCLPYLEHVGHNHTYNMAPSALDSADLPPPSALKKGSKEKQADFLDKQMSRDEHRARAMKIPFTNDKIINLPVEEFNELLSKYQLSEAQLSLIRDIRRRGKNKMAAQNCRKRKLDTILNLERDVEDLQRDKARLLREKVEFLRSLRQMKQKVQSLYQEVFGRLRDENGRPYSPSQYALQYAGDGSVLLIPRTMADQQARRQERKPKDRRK
Briefly: EMSA. As to conditions: NRF1 lysate without added MAFG; 20 mM HEPES (pH not stated), 4 mM MgCl2, 20 mM KCl, 5 mM DTT, 1 mM EDTA, 100 ug/ml BSA, 4% glycerol, poly(dI-dC), 30 min room temperature; native gel 1X TBE; protein translated in vitro; protein details: His (plasmid pPB-N-His-NRF1, abm PV028854); label: IRDye-700 as probe, unlabeled as competitor.

Data set [5] deals with T2, NRF2 (Homo sapiens) (UniProt Q16236).
T2 sequence (looked up, limits assumed): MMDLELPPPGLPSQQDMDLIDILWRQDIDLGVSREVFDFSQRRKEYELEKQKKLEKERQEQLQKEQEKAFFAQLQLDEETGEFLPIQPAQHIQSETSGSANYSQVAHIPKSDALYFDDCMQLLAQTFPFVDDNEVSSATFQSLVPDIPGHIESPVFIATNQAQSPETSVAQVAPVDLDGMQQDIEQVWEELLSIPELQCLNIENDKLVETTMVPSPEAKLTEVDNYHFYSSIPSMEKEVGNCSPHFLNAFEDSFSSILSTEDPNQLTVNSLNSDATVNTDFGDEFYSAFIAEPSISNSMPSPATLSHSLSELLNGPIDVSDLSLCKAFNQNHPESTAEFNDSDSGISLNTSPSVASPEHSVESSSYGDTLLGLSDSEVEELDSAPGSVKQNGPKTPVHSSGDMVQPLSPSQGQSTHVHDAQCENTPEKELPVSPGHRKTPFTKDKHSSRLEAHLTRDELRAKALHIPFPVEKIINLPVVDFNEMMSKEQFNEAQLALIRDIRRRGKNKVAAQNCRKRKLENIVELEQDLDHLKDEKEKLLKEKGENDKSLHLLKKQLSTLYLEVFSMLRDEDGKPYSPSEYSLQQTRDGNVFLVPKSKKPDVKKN
The experiment in a line: EMSA. As to conditions: NRF2 only, 75 nM; 20 mM HEPES (pH not stated), 4 mM MgCl2, 20 mM KCl, 5 mM DTT, 1 mM EDTA, 100 ug/ml BSA, 4% glycerol, poly(dI-dC), 30 min room temperature; native gel 1X TBE; recombinant protein; protein details: His, Flag3 (plasmid pPROHEX-HC-Flag3-NRF2); label: IRDye-700 as probe, unlabeled as competitor.

For data set [6], the system named is NRF1 + MAFG. Briefly: competition EMSA. As to conditions: unlabeled vs labeled N1, legend: competes less efficiently than A allele, main text: does not compete; 20 mM HEPES (pH not stated), 4 mM MgCl2, 20 mM KCl, 5 mM DTT, 1 mM EDTA, 100 ug/ml BSA, 4% glycerol, poly(dI-dC), 30 min room temperature; native gel 1X TBE; protein translated in vitro; protein details: His (plasmid pPB-N-His-NRF1, abm PV028854); label: unlabeled competitor.

Construct, isoform or probe ends are uncertain for at least one entry. For part of these data: A negative result means that nothing was seen under these conditions. For part of these data: Protein sequences can lack the tags named with them. For part of these data: A weaker result is weaker than the reference pair of the same experiment.

With “AATCCGCAGTCACAGTGACTCAGCAGAATCTGAGCCTAG (double strand) [NQO1 ARE WT (NQO1WT)]”, the binding result in data set [1], in data set [2], in data set [3], in data set [4] and in data set [5] was “no binding” in each case.

Take “CTGCGCTCCAAACCCGCTGTGTCGTACCATACCGGATGT (double strand) [MS4A6A rs667897G]”: the binding result in data set [6] is “binds more weakly”.

The values are drawn from publication PMC5705802.
